To fix the notation:
B1: LIGO4 in pcDNA6/myc-HisB (protein, UniProt Q6UY18 29-593)
chain: GSCPAVCDCTSQPQAVLCGHRQLEAVPGGLPLDTELLDLSGNRLWGLQQGMLSRLSLLQELDLSYNQLSTLEPGAFHGLQSLLTLRLQGNRLRIMGPGVFSGLSALTLLDLRLNQIVLFLDGAFGELGSLQKLEVGDNHLVFVAPGAFAGLAKLSTLTLERCNLSTVPGLALARLPALVALRLRELDIGRLPAGALRGLGQLKELEIHLWPSLEALDPGSLVGLNLSSLAITRCNLSSVPFQALYHLSFLRVLDLSQNPISAIPARRLSPLVRLQELRLSGACLTSIAAHAFHGLTAFHLLDVADNALQTLEETAFPSPDKLVTLRLSGNPLTCDCRLLWLLRLRRHLDFGMSPPACAGPHHVQGKSLKEFSDILPPGHFTCKPALIRKSGPRWVIAEEGGHAVFSCSGDGDPAPTVSWMRPHGAWLGRAGRVRVLEDGTLEIRSVQLRDRGAYVCVVSNVAGNDSLRTWLEVIQVEPPNGTLSDPNITVPGIPGPFFLDSRGVAMVLAVGFLPFLTSVTLCFGLIALWSKGKGRVKHHMTFDFVAPRPSGDKNSGGNRVTAKLF

By UniProt entry, the sequences of proteins in these tests, tags left out. Residues count along the entry.
UniProt P09211: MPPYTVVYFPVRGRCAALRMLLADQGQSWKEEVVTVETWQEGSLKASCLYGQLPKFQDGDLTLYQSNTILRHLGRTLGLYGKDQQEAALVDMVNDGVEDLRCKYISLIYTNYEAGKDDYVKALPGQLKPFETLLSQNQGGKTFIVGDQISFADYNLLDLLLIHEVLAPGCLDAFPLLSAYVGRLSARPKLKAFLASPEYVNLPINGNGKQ
UniProt P98161, residues 24-4303: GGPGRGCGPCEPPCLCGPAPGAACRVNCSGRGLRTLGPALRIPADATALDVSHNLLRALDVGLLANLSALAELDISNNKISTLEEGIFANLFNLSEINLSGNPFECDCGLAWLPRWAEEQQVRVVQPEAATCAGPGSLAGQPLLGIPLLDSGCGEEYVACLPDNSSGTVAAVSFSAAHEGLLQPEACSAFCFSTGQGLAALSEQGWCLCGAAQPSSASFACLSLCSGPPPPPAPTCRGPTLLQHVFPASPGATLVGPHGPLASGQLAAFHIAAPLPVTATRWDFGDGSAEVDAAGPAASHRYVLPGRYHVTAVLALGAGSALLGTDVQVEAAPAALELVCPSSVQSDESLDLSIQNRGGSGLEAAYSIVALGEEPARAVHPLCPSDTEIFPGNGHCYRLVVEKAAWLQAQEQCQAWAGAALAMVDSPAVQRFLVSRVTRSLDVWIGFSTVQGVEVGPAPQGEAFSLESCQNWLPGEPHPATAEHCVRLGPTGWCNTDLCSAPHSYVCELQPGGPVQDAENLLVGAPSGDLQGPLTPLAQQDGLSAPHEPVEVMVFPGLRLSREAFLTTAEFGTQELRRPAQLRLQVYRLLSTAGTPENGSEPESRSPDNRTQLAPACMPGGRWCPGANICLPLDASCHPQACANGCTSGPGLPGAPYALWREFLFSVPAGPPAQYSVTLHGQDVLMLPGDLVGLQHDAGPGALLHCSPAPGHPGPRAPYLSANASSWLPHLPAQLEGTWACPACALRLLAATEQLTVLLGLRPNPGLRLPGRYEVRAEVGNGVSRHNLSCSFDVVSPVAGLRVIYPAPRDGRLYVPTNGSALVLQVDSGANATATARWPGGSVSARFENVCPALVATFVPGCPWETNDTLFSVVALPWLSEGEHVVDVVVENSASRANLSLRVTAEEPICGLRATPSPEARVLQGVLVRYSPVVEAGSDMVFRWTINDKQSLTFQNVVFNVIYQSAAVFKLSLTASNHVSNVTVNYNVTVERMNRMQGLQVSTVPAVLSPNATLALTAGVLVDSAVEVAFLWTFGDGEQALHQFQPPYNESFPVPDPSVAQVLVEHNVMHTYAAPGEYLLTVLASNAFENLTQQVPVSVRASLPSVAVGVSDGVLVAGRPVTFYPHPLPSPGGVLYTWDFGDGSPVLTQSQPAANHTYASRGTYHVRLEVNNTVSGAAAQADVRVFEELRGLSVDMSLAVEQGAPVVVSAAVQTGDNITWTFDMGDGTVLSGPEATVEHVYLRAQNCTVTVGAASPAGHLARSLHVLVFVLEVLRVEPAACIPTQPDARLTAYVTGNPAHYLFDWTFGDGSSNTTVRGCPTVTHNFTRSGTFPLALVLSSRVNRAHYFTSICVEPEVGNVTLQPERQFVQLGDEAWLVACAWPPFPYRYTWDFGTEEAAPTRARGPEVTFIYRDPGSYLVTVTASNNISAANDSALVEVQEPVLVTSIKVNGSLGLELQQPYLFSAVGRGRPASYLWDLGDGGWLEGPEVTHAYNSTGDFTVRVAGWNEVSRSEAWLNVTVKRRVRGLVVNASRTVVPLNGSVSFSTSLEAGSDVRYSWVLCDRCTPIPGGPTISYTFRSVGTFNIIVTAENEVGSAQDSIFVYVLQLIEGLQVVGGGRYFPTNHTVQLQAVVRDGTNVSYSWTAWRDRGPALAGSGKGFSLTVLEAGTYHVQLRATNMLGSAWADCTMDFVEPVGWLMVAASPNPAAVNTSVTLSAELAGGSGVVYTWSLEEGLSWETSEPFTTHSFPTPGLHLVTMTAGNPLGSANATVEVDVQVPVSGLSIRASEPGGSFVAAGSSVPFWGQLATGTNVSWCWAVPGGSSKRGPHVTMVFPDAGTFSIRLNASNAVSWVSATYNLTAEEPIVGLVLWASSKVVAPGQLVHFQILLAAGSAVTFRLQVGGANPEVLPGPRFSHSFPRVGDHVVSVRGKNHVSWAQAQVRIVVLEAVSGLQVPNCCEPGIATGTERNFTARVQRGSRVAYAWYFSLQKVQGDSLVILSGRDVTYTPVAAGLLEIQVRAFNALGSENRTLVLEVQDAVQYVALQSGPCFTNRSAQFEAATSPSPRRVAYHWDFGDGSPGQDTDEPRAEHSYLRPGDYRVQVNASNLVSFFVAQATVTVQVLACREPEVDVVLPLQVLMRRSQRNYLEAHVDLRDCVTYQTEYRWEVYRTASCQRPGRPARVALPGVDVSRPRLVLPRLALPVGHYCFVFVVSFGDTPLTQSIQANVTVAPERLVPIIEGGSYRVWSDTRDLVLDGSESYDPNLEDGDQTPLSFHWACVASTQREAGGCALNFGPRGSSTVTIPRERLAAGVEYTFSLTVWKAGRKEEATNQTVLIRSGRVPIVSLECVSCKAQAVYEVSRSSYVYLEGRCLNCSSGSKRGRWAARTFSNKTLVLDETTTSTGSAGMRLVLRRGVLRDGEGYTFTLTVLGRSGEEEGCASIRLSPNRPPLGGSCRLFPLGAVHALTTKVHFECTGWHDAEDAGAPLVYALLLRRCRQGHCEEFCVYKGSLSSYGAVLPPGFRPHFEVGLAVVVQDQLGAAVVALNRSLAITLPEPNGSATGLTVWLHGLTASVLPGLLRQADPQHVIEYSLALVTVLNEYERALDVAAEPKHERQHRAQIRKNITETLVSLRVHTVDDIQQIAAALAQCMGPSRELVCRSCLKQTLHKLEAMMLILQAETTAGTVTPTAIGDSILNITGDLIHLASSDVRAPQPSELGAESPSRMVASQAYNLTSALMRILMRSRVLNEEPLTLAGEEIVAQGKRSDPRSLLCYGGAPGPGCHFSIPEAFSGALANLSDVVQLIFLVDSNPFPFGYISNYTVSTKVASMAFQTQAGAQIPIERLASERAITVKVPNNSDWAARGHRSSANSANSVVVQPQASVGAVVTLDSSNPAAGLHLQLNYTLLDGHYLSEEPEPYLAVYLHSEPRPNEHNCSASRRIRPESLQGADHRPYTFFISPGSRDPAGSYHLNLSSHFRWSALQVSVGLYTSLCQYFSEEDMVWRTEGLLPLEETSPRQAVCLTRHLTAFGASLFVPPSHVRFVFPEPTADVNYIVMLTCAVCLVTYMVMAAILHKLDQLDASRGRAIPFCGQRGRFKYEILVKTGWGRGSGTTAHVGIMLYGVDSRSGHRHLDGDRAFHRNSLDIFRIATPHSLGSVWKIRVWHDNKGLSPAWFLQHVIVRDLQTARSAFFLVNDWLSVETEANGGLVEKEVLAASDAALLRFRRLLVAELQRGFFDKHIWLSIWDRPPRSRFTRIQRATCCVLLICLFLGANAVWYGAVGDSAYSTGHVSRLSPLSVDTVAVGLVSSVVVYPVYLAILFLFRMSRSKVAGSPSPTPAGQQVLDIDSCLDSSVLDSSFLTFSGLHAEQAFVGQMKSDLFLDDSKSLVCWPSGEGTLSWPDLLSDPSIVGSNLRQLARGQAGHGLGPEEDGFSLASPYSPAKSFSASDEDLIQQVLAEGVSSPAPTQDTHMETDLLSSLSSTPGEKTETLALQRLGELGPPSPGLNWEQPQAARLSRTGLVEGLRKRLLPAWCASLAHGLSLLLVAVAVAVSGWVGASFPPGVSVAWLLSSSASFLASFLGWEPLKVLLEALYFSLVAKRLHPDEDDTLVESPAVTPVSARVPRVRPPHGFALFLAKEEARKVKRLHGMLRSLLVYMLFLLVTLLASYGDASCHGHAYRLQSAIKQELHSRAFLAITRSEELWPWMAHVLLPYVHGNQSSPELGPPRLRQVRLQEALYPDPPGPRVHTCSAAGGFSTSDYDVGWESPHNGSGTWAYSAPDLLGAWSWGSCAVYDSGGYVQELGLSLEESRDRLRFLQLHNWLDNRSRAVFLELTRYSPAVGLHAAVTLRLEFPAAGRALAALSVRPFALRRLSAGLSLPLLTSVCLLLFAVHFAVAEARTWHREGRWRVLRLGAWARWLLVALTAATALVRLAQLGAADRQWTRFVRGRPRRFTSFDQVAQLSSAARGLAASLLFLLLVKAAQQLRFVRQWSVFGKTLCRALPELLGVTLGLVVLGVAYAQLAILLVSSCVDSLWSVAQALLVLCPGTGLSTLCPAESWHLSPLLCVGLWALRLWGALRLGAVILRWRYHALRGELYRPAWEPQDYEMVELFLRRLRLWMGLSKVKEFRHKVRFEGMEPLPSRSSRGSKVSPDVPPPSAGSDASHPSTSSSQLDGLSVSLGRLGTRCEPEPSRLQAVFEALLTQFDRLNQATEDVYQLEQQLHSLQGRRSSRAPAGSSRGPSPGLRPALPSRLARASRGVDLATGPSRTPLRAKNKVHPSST

These are yes or no findings as the source states them, for the method shown. Binding seen in cells or lysates may run through a third protein. Sequences can lack the tags named with a protein.

The assay concerns the target T1, NHE9 with Flag tag (human) (UniProt Q8IVB4).
T1 sequence: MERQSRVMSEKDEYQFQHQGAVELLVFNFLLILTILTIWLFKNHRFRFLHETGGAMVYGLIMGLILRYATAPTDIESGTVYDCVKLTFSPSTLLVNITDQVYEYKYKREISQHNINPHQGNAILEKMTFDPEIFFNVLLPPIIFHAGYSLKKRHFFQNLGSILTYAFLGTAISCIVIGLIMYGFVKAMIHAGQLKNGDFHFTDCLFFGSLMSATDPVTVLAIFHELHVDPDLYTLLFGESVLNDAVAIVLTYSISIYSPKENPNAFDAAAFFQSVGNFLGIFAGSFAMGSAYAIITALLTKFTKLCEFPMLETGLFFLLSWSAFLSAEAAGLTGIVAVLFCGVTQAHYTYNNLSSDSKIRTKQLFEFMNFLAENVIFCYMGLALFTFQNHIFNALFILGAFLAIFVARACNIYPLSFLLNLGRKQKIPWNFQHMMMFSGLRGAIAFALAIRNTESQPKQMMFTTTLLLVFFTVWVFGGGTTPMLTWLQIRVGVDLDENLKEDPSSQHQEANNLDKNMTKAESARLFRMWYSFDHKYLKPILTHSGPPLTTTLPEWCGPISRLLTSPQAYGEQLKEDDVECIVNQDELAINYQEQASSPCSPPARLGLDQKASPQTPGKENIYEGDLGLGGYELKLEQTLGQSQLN
Kind of assay: co-IP; lysates of NHE9 (Flag) stable transfectants transfected with myc-tagged partner; lysis buffer 20 mM Tris pH 7.5, 150 mM NaCl, 1% Triton X-100, 1 mM EDTA; anti-Flag beads, or anti-Myc antibody with Protein-A/G-agarose; blots with anti-Myc or anti-FLAG; also done after treatment of the cells with cisplatin, vinorelbine or X-rays (binding relatively weaker).
Turning to “GSTP1 in pcDNA6/myc-HisB (from UniProt P09211 1-210)”, the binding entry is listed as “no binding”.

On to “PKD1 in pcDNA6/myc-HisB (from UniProt P98161 24-4303)”, for which the binding entry is listed as “no binding”.

For B1, the binding result is reported as “no binding”.

The values are drawn from publication PMC4494947.
